PubChem BioAssay AID720505, Drosophila RNAi Screening Center – 2013
Assay: 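Fly regulators or components of the CRAC channel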 (primary screen). Cell system: Drosophila S2R+ cells. Knock-down reagent: long dsRNA against Drosophila genes. Conditions: thapsigargin (2 µM) in calcium-free buffer to empty internal stores, then 2 mM calcium added back. Detection: 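Fluo-4 signal in 384-well plates read on a FLIPR after thapsigargin (2 µM, calcium-free) store depletion and 2 mM calcium add-back; unnormalised mean endpoint per well; screen run twice, selected wells retested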. Direction: calcium signal: higher = more calcium entry after store depletion. Active means: 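Knock-downs counted as hits when calcium entry dropped relative to STIM1 positive and Rho1 negative controls present on each plate; roughly 1500 genes called, with reductions of differing size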. Calls: active = called as lowering calcium entry; inactive = not called.
The screen tested about 20,000 reagents; below is an unselected part of those with a known target gene and a result. Over the whole deposit, about 2,100 (10%) were called active. 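Raw plate signals without normalisation; calls rest on control-based scores that were not deposited; replicate 2 separates called from uncalled poorly.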 Unmarked entries are inactive. The numbers tell different reagents against one gene apart. The record does not give: the amount of reagent, the time to read-out.

{"gene":"Acp32CD","reagent no.":1,"calcium signal, replicate 1":185,"calcium signal, replicate 2":173}
{"gene":"MsR2","reagent no.":1,"calcium signal, replicate 1":111,"calcium signal, replicate 2":84}
{"gene":"MsR2","reagent no.":2,"calcium signal, replicate 1":78.2,"calcium signal, replicate 2":89.4}
{"gene":"MsR2","reagent no.":3,"calcium signal, replicate 1":161,"calcium signal, replicate 2":188}
{"gene":"Agpat3","reagent no.":1,"calcium signal, replicate 1":125,"calcium signal, replicate 2":91}
{"gene":"CG9518","reagent no.":1,"calcium signal, replicate 1":113,"calcium signal, replicate 2":172}
{"gene":"ReepA","reagent no.":1,"calcium signal, replicate 1":174,"calcium signal, replicate 2":95}
{"gene":"ReepA","reagent no.":2,"calcium signal, replicate 1":106,"calcium signal, replicate 2":192}
{"gene":"Mat1","reagent no.":1,"calcium signal, replicate 1":136,"calcium signal, replicate 2":160}
{"gene":"Nplp3","reagent no.":1,"calcium signal, replicate 1":76.2,"calcium signal, replicate 2":139}
{"gene":"Prosbeta2R1","reagent no.":1,"calcium signal, replicate 1":166,"calcium signal, replicate 2":122}
{"gene":"hep","reagent no.":1,"calcium signal, replicate 1":135,"calcium signal, replicate 2":93.8}
{"gene":"hep","reagent no.":2,"calcium signal, replicate 1":126,"calcium signal, replicate 2":90.3}
{"gene":"Dp1","reagent no.":1,"calcium signal, replicate 1":105,"calcium signal, replicate 2":92.5}
{"gene":"Spn47C","reagent no.":1,"calcium signal, replicate 1":128,"calcium signal, replicate 2":109}
{"gene":"CG14079","reagent no.":1,"calcium signal, replicate 1":"71 (active)","calcium signal, replicate 2":145}
{"gene":"CG4835","reagent no.":1,"calcium signal, replicate 1":107,"calcium signal, replicate 2":66}
{"gene":"kst","reagent no.":1,"calcium signal, replicate 1":104,"calcium signal, replicate 2":82.9}
{"gene":"tj","reagent no.":1,"calcium signal, replicate 1":71.7,"calcium signal, replicate 2":158}

Targets above whose target name begins with A or a (2):
{"gene":"Acp32CD","reagent no.":1,"calcium signal, replicate 1":185,"calcium signal, replicate 2":173}
{"gene":"Agpat3","reagent no.":1,"calcium signal, replicate 1":125,"calcium signal, replicate 2":91}
